Reference: US20080249606A1
No constants are given. Whether binding was seen depends on the method and setting. Some binding calls cover weakened binding; strength is not graded here.

Amino acid sequences for entries named in this document (tags omitted). Residues count along the entry.
UniProt P02769, residues 25-607: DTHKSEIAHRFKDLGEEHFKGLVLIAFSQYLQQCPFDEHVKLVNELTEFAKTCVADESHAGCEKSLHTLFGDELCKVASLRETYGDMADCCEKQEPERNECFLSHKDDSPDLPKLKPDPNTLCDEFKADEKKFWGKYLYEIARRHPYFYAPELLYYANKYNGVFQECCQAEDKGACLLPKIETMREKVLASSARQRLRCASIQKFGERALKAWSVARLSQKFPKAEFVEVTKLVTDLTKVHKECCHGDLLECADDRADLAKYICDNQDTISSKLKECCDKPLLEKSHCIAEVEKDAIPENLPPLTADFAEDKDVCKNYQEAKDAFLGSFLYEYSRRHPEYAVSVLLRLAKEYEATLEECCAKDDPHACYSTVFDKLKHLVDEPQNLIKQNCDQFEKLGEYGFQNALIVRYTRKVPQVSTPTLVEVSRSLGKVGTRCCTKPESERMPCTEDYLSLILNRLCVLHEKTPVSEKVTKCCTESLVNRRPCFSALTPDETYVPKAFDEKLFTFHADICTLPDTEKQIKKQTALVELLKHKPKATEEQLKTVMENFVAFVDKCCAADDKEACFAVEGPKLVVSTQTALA
UniProt P01012, residues 2-386: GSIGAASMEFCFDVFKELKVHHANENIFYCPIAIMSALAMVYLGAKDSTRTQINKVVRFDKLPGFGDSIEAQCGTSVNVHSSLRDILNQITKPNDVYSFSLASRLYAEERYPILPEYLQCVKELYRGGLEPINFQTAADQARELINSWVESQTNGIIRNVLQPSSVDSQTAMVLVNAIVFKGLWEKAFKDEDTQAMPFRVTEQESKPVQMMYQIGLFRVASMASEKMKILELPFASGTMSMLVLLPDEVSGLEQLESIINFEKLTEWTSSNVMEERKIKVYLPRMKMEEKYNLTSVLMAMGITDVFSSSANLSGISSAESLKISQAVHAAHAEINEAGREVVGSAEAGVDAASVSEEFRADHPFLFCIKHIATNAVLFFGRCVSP
UniProt P00750, residues 36-562: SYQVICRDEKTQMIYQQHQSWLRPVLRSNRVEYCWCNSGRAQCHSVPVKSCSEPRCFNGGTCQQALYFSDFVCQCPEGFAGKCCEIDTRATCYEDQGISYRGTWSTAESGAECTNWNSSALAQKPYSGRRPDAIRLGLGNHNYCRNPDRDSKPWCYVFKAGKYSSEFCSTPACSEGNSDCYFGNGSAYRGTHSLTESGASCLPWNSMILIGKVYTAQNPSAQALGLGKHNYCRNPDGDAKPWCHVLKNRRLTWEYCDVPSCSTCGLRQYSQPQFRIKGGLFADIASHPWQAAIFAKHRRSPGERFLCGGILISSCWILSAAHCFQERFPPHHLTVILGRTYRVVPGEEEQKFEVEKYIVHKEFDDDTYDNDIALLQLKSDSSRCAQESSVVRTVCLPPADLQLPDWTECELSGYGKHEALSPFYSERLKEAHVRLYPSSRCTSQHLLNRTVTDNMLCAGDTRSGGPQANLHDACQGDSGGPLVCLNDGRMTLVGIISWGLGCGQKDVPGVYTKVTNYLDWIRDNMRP

Columns and labels:
[1] = biological target: Bovine serum albumin (BSA) (bovine) (UniProt P02769); assay: ELISA, BSA coated on Nunc Immobilizer Amino, Greiner Microlon and Costar 2595 plates, tPA in 10 mM εACA, detection with antibody 374b
[2] = biological target: ovalbumin (OVA, A-7641, Sigma-Aldrich) (UniProt P01012); assay: ELISA, OVA coated on Nunc Immobilizer Amino, Greiner Microlon and Costar 2595 plates, tPA in 10 mM εACA, detection with antibody 374b

Substance: tissue-type plasminogen activator (tPA, Actilyse, Boehringer-Ingelheim) (from UniProt P00750 36-562) (enzyme)
- binding [1]: binds
- binding [2]: binds
